# Data taken from US20210145801A1, “THERAPY FOR PROTEIN MISFOLDING DISEASE” (WREN THERAPEUTICS LIMITED, priority 2018, published 2021).
# Amino acid sequences for entries named in this document (tags omitted). Residues count along the entry.
# UniProt P05067, 671-713: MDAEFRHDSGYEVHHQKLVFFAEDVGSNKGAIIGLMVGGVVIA
# At least one structure is not confirmed: it was looked up by name or label, or the drawing left a doubt.
# Target: T1, Aβ42 (Homo sapiens, UniProt P05067)
# T1 construct: made in house; host or cells: E. coli BL21 Gold (DE3)
# Test: ThT kinetic assay of Aβ42 aggregation (unseeded)
# Type: biochemical
# Settings: 2 μM Aβ42; 5× drug:protein concentration
# Source text: The recombinant Aβ(M1-42) peptide ([…]-SNKGAIIGLMVGGVVIA [SEQ ID NO: 1]), here called Aβ42, was expressed in the E. coli BL21 Gold (DE3) strain (Stratagene, Calif., U.S.A.) and purified as described previously with slight modifications. Briefly, the purification procedure involved sonication of E. coli cells, dissolution of inclusion bodies in 8 M urea, and ion exchange in batch mode on diethylaminoethyl cellulose resin and lyophylization. The lyophilized fractions were further purified using Superdex 75 HR 26/60 column (GE Healthcare, Buckinghamshire, U.K.) and eluates were analyzed using SDS-PAGE for the presence of the desired protein product. The fractions containing the recombinant protein were combined, frozen using liquid nitrogen, and lyophilized again.
# Except for Netoglitazone, which was custom synthesised by GVK BIO, all small molecules were purchased with a purity greater than 99%. Small molecules were first solubilized in 100% DMSO to a concentration of 5 mM, and then diluted in the peptide solution to reach a final DMSO concentration of maximum 1-3%. […]
# Solutions of monomeric peptides were prepared by dissolving the lyophilized Aβ42 peptide in 6 M GuHCl. […] The centre of the peak was collected, and the peptide concentration was determined from the absorbance of the integrated peak area using ε280=1490 L mol^−1 cm^−1. […]
smiles,measurement,value
CC1(COc2ccc(CC3SC(=O)NC3=O)cc2)CCCCC1 (stereo not shown) [Ciglitazone],Delay of Aβ42 aggregation,significantly delayed aggregation
